Results from patent publication US20050265970.

Protein sequences, listed by entry. Tags and fused reporters are not part of them.
UniProt Q04206, whole entry: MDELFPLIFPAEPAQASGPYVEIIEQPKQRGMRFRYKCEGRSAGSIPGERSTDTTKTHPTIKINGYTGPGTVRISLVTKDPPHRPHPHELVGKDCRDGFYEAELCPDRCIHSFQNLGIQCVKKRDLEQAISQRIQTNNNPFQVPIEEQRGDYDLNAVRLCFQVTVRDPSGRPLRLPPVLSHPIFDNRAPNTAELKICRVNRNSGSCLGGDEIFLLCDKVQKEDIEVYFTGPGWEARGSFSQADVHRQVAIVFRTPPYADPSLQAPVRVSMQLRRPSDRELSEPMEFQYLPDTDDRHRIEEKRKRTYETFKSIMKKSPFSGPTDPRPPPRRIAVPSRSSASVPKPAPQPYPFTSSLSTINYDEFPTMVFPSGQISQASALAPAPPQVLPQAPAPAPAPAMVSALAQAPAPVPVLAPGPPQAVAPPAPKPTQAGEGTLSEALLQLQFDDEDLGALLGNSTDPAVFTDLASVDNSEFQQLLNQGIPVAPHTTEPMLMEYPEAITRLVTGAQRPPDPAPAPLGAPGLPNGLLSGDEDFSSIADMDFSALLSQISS

Columns and labels:
[1] = biological target: T1, NF-kB p50 (p50/p50 homodimer) (UniProt P19838); experiment: EMSA; details: supershifted by anti-p50, protein in a lysate after overexpression, protein details: pMT2T-p50 transfected NTera-2 whole cell extract, label: 32P
T1 sequence (looked up, limits assumed): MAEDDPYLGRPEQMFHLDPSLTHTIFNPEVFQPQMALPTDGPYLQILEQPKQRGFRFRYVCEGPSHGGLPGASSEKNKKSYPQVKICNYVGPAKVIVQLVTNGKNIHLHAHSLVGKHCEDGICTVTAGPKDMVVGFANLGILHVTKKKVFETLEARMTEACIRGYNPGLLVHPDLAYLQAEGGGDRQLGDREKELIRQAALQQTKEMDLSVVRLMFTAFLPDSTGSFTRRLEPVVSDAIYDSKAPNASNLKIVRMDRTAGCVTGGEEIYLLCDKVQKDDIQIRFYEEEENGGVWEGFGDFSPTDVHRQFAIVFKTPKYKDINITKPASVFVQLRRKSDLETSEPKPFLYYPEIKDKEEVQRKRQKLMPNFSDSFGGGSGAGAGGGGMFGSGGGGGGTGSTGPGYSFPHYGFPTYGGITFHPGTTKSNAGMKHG

[2] = tested on: NF-kB p50/RelA heterodimer; experiment: EMSA; details: supershifted by anti-p50 and anti-RelA, protein in a lysate after overexpression, label: 32P
[3] = tested on: endogenous NF-kB complexes; experiment: EMSA; details: 20 mM HEPES pH 7.9, 100 mM KCl, polydI-dC; protein in an extract; label: 32P
RelA (p65) = RelA (p65) (Homo sapiens?) (UniProt Q04206); experiment: activity in cells; details: delta56-CAT reporter, protein in cells, protein details: pMT2T-RelA in NTera-2 cells

GGGGATTCCA (double strand) [gadd45b kB-2 site]
binding result ([1]; strongest signal with p50 homodimer): binds | binding result ([2]; stronger than kB-1): binds | binding result [3]: binds

GATCTCTAGGGACTCTCCGGGGACAGCGAGGGGATTCCAGACC (double strand) [kB-1/2 reporter oligonucleotide]
activity on this sequence (RelA (p65); induced more than kB-3): active

TAGGGACTCTCC (double strand) [gadd45b kB-1 site]
binding result ([1]; intermediate signal between kB-2 and kB-3): binds | binding result ([2]; weaker signal than kB-2 and kB-3): binds | binding result [3]: binds

GGAAACCCCG (double strand) [gadd45b kB-3 site]
binding result ([1]; poorest of three sites with p50 homodimer): binds | binding result ([2]; stronger than kB-1): binds | binding result [3]: binds

GATCTGAATTCGCTGGAAACCCCGCAC (double strand) [kB-3 reporter oligonucleotide]
activity on this sequence (RelA (p65); strongly RelA responsive): active

For some assays here: Where cells or extracts were used, other partners may take part. For some assays here: Tags and fusion partners may be left off the protein sequences shown. For some assays here: For at least one entry, the source does not settle the construct or the ends of the probe.
